Here are results for one substance from PMC7132976.

Amino acid sequences for entries named in this document (tags omitted).
UniProt Q14999: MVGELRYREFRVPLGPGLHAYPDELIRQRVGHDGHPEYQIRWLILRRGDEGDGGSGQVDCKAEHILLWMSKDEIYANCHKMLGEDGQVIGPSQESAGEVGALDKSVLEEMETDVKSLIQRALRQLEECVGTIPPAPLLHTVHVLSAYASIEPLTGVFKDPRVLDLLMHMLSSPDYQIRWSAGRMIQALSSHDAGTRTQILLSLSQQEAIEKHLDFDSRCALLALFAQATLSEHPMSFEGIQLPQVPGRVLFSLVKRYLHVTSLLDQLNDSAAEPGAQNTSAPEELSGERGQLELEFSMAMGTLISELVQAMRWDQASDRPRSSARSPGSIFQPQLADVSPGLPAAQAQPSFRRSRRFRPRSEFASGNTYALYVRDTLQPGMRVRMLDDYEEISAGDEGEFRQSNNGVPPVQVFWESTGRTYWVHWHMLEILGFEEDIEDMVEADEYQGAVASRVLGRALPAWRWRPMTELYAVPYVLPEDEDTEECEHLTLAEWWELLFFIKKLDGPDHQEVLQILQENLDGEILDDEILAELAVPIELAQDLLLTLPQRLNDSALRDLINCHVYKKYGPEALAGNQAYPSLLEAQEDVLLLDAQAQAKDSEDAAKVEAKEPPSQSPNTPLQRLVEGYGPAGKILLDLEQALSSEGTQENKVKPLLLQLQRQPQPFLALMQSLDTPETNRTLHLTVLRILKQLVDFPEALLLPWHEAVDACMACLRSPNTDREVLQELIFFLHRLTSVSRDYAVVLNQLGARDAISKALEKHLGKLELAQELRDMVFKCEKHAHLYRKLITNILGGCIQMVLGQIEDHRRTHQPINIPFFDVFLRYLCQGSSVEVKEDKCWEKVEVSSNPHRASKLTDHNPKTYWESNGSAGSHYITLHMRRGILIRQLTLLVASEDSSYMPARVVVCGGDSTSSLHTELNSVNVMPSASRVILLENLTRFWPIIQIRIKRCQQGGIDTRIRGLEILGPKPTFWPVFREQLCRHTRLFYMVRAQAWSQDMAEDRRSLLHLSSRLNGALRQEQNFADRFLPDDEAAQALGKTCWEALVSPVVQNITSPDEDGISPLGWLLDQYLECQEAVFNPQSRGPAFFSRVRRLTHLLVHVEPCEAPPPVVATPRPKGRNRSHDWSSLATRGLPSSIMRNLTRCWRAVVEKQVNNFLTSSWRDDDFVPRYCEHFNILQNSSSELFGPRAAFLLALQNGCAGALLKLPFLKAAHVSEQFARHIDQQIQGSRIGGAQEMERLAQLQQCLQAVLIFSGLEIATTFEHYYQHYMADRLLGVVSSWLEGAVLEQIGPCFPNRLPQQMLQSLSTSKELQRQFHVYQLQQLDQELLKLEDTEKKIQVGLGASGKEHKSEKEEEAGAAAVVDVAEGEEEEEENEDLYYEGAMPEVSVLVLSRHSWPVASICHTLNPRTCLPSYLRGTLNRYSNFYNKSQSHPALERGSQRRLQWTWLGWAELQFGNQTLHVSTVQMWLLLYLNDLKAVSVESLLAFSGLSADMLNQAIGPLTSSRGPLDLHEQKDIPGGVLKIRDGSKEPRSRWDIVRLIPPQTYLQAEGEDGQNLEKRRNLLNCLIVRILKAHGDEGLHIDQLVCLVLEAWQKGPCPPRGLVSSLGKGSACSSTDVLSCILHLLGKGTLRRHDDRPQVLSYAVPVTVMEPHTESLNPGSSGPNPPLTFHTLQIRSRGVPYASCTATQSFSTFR

No constants are given. Whether binding was seen depends on the method and setting. In cells and extracts the contact can be indirect. Some entries that bind do so weakly or less than the wild type.

The experiment concerns the target T1, MST1 (mammalian sterile 20 like kinase 1) (human (endogenous in U87MG, U251 and GSC267)) (UniProt Q13043).
T1 sequence: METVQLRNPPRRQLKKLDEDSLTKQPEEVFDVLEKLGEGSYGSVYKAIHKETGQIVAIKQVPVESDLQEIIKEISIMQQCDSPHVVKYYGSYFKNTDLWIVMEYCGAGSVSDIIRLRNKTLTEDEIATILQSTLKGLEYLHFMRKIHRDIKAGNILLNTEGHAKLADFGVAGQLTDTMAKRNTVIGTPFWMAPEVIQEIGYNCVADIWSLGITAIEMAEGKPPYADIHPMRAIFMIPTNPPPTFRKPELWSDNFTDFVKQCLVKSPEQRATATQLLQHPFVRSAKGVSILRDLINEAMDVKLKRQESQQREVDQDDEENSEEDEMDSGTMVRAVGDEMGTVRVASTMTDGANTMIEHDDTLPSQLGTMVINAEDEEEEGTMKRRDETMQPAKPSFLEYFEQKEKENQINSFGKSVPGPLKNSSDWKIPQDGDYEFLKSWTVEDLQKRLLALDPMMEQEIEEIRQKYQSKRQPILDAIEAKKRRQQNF
Kind of experiment: co-IP; endogenous proteins; lysates of U87MG, U251 and GSC267 cells (transfected with NC or si-CUL7) in IP buffer (Pierce) with protease inhibitors; 5 ug anti-CUL7 or anti-MST1 antibody or IgG and Protein A/G agarose beads overnight at 4 °C; western blot. For orientation: Immunoblotting shows a protein as a band on a membrane.

“Cullin-7 (CUL7) (from UniProt Q14999 1-1698)”: the binding entry was “binds”.
